The target in this test is GST [GST: P08515]. The test can be described thus: Far-Western blot with radioactively labeled probe.

Protein sequences, listed by entry. Tags and fused reporters are not part of them. Lines headed by an entry give the natural chain unless they say otherwise; changes in a name come on top.
UniProt P15498: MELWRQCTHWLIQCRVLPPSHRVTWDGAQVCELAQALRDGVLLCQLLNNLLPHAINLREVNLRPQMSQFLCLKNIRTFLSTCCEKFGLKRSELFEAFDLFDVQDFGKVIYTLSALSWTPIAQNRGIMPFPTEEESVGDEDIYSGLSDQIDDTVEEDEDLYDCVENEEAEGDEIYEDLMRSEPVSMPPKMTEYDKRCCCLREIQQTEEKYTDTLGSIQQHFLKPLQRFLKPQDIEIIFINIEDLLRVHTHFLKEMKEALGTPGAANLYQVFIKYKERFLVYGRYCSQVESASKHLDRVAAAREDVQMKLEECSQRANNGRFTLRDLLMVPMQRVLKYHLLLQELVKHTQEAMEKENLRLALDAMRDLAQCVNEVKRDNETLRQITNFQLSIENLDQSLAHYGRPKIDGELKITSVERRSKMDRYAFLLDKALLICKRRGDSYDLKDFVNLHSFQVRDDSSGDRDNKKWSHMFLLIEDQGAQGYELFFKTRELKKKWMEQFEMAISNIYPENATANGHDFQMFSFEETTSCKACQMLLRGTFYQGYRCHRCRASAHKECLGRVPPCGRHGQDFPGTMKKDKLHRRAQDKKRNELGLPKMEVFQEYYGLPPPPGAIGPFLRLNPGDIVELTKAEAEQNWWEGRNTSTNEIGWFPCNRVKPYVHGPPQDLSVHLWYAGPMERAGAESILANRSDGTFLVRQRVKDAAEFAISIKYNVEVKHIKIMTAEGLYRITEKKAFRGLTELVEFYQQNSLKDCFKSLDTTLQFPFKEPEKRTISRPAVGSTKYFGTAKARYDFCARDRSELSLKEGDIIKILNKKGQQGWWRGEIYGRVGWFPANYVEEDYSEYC

These are yes or no findings as the source states them, for the method shown.

For the substance “Vav SH3-SH2-SH3 domains (amino acids 648-844) (from UniProt P15498)”, the binding result is given as “no binding”.

(Values after patent US20020150567A1 (University of California, published 2002).)
